PubChem BioAssay AID2685 (National Center for Advancing Translational Sciences (NCATS), 2010)
This is one part of the list. Further columns of the screen follow, without active or inactive calls. The list favours compounds with an active or inconclusive main result. The note in brackets gives the kind of curve behind each potency; many fits are weak.

Assay: qHTS Assay for Lipid Storage Modulators in Drosophila S3 Cells;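 as to cell number change: cells counted by Cell Tracker Red CMTPX staining in the red channel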
Settings: BODIPY lipid droplet fluorescence, 18-24 h; for cell number change: measured here: cell count max response, cells fed with added oleic acid
Outline: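 Laser-scanning cytometry quantifies lipid droplet accumulation (500–530 nm total intensity; droplet/cell object ratio) in oleic acid-fed (400 uM added) Drosophila S3 cells treated with a concentration series. 20 uM Triacsin C defined 100% inhibition.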

[1] = measured here: lipid fluorescence (Fed channel) AC50, cells fed with added oleic acid
[2] = measured here: cell number channel AC50, cells fed with added oleic acid

Row | SMILES | cell number change [%] | AC50 [1] | AC50 [2]
1 | COC(=O)c1ccc(-n2nnnc2SCC(=O)NCc2cccc(C(=O)O)c2)cc1 | 16.8 | 18.4 µM [falling, single point] | 
2 | COc1ccc(-c2cc(C(F)(F)F)n3nc(C(=O)O)cc3n2)cc1OC | -10.3 |  | 
3 | Cc1c(OCC(=O)OC(C)C)ccc2c3c(c(=O)oc12)CCC3 | 9.04 |  | 6.51 µM [falling, single point]
4 | Cc1ccc(-n2nnc3c(=O)n(CC(=O)NCc4ccco4)cnc32)cc1 | -14.7 |  | 1.3 µM [rising, full curve, poor fit]
5 | Cc1cc(C)c(C#N)c(SCSCc2ccccc2)n1 | 330 | 29.1 µM [rising, partial curve] | 14.6 µM [rising, partial curve]
6 | CCCOc1ccc(OC(=O)Cc2ccc(OC)c(S(=O)(=O)N3CCOCC3)c2)cc1 | -31.9 | 20.6 µM [falling, single point] | 20.6 µM [falling, single point]
7 | Cc1cc(-c2ccc(C)c(S(=O)(=O)NCCCN3CCN(c4ccccc4F)CC3)c2)on1 | -22.1 | 20.6 µM [falling, single point] | 
8 | C=CCSc1nnc(-c2cccnc2)o1 | -23.5 | 29.1 µM [falling, single point] | 
9 | CN(C)S(=O)(=O)c1ccc(NC(=O)C2COc3ccccc3O2)cc1 (centres undefined) | -28.8 | 29.1 µM [falling, single point] | 
10 | O=C(COC(=O)Cn1cc(C(F)(F)F)ccc1=O)NCc1ccccc1 | 10.5 |  | 
11 | Cc1cnc(NC(=O)Nc2ccc(Cl)cc2)s1 | -36.6 | 29.1 µM [falling, single point] | 29.1 µM [falling, single point]
12 | COc1cccc(CNC(=O)c2ccc(NC(=O)C3=CSCCO3)cc2)c1 | 1.14 | 11.6 µM [rising, single point] | 
13 | CCn1c(O)c(N=NC(=O)Cn2ccc(C(F)(F)F)n2)c2ccccc21 | -47.1 | 6.51 µM [rising, full curve] | 
14 | CCc1ccc(NC(=S)NC2CCN(Cc3ccccc3)CC2)cc1 | -2.97 | 25.9 µM [falling, partial curve, poor fit] | 
15 | O=C(Cc1c(F)cccc1Cl)NNC(=S)Nc1ccc(S(=O)(=O)Nc2ncccn2)cc1 | 8.36 | 31.6 µM [rising, single point] | 
16 | Cc1ccc(-n2c(C)nc3c(cnn3-c3ccc(F)cc3)c2=O)cc1 | -23.6 | 20.6 µM [falling, partial curve] | 
17 | Cn1cc(Cl)c(C(=O)NC(=S)Nc2sc3c(c2C#N)CCCCC3)n1 | 29.5 | 4.11 µM [rising, partial curve] | 1.16 µM [rising, full curve]
18 | Cc1ccccc1NC(=O)COC(=O)c1cccc(S(=O)(=O)N2CCCCC2)c1 | -12.7 | 3.26 µM [rising, single point] | 
19 | Cc1ccc2c(CC(=O)Nc3nc(C)cs3)coc2c1 | -20.4 |  | 
20 | c1csc(CNc2nc3ccccc3n2CCN2CCOCC2)c1 | -2.59 | 0.58 µM [falling, single point] | 

Row | SMILES | cell number change [%] | AC50 [1] | AC50 [2]
21 | COC(=O)c1cc(NC(=S)N2CCN(C(=O)C3CCCO3)CC2)cc(C(=O)OC)c1 (centres undefined) | -19.2 | 0.366 µM [falling, partial curve, poor fit] | 
22 | C=CCn1c(SCC(=O)N2CCOCC2)nc2ccccc2c1=O | -15.6 | 29.1 µM [rising, single point] | 
23 | NC(=O)c1cc(Cc2ccccc2)sc1NC(=O)c1ccco1 |  |  | 2.06 µM [rising, partial curve]
24 | COc1ccccc1-c1cc2nc(C)c(CCC(=O)NCc3ccco3)c(C)n2n1 | 40 | 0.58 µM [rising, single point] | 29.1 µM [rising, single point]
25 | CCN(CCO)c1ncnc2c1sc1nc(C(C)C)c3c(c12)CC(C)(C)OC3 | -31.6 | 23.1 µM [rising, partial curve, poor fit] | 20.6 µM [falling, single point]
26 | Cc1cc(C)n2nc(-c3ccc(Cl)cc3)cc2n1 | 18.1 | 0.58 µM [rising, single point] | 
27 | CCOC(=O)[C@H](O)[C@@H](O)c1cccc([C@H](O)[C@@H](O)C(=O)OCC)c1 | 9.71 |  | 
28 | Cc1ccc(NC2=C(NCCO)C(=O)c3ccccc3C2=O)cc1 | -80.3 | 4.61 µM [falling, partial curve] | 5.17 µM [falling, full curve]
29 | CC1CN(c2ccc(NC(=O)c3ccco3)cc2C(=O)O)CC(C)O1 (centres undefined) | 12.7 | 5.8 µM [falling, single point] | 6.51 µM [falling, single point]
30 | CCCCOc1ccc(CNC(=O)NS(=O)(=O)c2ccc(OCC)cc2)cc1 | 17.2 |  | 
31 | Fc1ccc(-c2c[nH]c(=S)n2Cc2ccccc2)cc1 | -17.1 |  | 0.731 µM [falling, single point]
32 | O=C1C2C(C(=O)N1/N=C/c1ccc([N+](=O)[O-])o1)C1C=CC2C12CC2 (centres undefined) | -22.7 | 11.6 µM [falling, partial curve, poor fit] | 
33 | O=C(COC(=O)CCc1c[nH]c(=O)[nH]1)Nc1cccc(Cl)c1 | -82.5 | 1.84 µM [falling, full curve] | 1.84 µM [falling, full curve]
34 | CCOc1ccc(-c2nnn(CC(=O)NCc3ccc(F)cc3)n2)cc1OCC | 9.81 | 3.26 µM [rising, partial curve] | 
35 | CCCCCC/C(C=O)=C\c1ccccc1 | -41.8 |  | 29.1 µM [falling, single point]
36 | Cc1cccc(NC(=O)Nc2ccccn2)c1C | 24 | 0.92 µM [rising, full curve, poor fit] | 0.103 µM [rising, full curve, poor fit]
37 | CN(C)C(=O)c1nnc(Cc2ccc(Cl)cc2)o1 | -0.308 | 0.00461 µM [rising, full curve, poor fit] | 
38 | COc1ccccc1-n1cc(C(=O)NCC(=O)N2CCN(c3ccccn3)CC2)c2ccccc2c1=O | 12.6 |  | 1.46 µM [rising, partial curve, poor fit]
39 | CCN1C(=O)C(=O)N(CC(=O)Nc2cc(C)ccc2C)C1=O | -22.4 | 16.4 µM [falling, partial curve, poor fit] | 
40 | COCc1cc(/C=N\NC(=O)COc2ccccc2)ccc1OC |  | 2.59 µM [rising, single point] | 

Row | SMILES | cell number change [%] | AC50 [1] | AC50 [2]
41 | COc1cccc(/C=N/NC(=O)C(=O)N2CCCCCC2)c1OC | 20.8 | 29.1 µM [rising, single point] | 
42 | Cc1ccccc1NC(=O)c1snc2c(=O)[nH]cnc12 | 26.3 |  | 
43 | CCn1c(C)nc2cc(C(=O)NNC(=S)Nc3ccc(Cl)cc3Cl)ccc21 | -0.145 | 0.116 µM [falling, full curve, poor fit] | 0.146 µM [falling, full curve, poor fit]
44 | CCC(=O)Nn1cnc2c(c1=O)C1(CCCCC1)Cc1ccccc1-2 | 56.5 | 4.11 µM [rising, partial curve] | 9.2 µM [rising, partial curve]
45 | COc1ccc(CN=C(Nc2ccccc2)SC2CC(=O)N(C)C2=O)cc1 (centres undefined) | 32.5 |  | 5.8 µM [rising, partial curve]
46 | Cc1cc(C)cc(NC(=O)Nc2cc(S(=O)(=O)N(C)C)ccc2C)c1 | -18.2 | 32.6 µM [falling, single point] | 
47 | CC(C)CC(=O)NC(=S)Nc1ccc(N2CCOCC2)cc1 | -6.94 | 0.13 µM [falling, full curve, poor fit] | 
48 | C/C(=N\NC(=S)NC1CCCCC1)c1ccc(C)o1 | 35.7 | 6.51 µM [falling, partial curve, poor fit] | 0.00461 µM [rising, full curve, poor fit]
49 | COc1ccc(-c2[nH]ncc2CN(C)CC2CCCCO2)cc1F (centres undefined) | 9.19 |  | 
50 | COc1cccc(C(=O)NC(=S)Nc2ccc(N(C)C)cc2)c1 |  | 18.4 µM [rising, single point] | 
51 | CON(C)c1nc(NCC(C)C)nc(OCC#N)n1 | 17.7 | 14.6 µM [rising, partial curve] | 
52 | CCn1c(SCC(=O)Nc2cc(C)on2)nnc1-c1ccc(C)cc1 | 5.26 | 5.62 µM [falling, single point] | 
53 | Cc1nn(C(C)(C)C)c(OC(=O)c2cccs2)c1Sc1ccccc1 | -40.5 | 1.3 µM [falling, full curve] | 0.146 µM [falling, full curve, poor fit]
54 | CN1CCN(C(=O)c2ccc(COc3ccc(Cl)cc3Cl)cc2)CC1 |  |  | 6.51 µM [rising, single point]
55 | Cc1ccc(CNC(=O)C2CC(=O)N(C3CCCCCCC3)C2)cc1 (centres undefined) | -4.52 | 29.1 µM [falling, single point] | 5.17 µM [rising, single point]
56 | COc1ccc(-c2csc(N(CC3CCCO3)C(=O)c3ccco3)n2)cc1 (centres undefined) |  | 6.51 µM [rising, single point] | 6.51 µM [rising, partial curve, poor fit]
57 | CCOC(=O)CSc1nnc(-c2cccc(Cl)c2)n1CC | -1.79 |  | 
58 | Cc1ccc(S(=O)(=O)N(C)Cc2ccc(C(=O)N/N=C/c3ccc(OC(F)F)cc3)cc2)cc1 | 83.3 |  | 29.1 µM [rising, partial curve, poor fit]

Exported in markdown: 3 of the compounds above

| Row | SMILES | cell number change [%] | AC50 [1] | AC50 [2] |
| --- | --- | --- | --- | --- |
| 42 | Cc1ccccc1NC(=O)c1snc2c(=O)[nH]cnc12 | 26.3 |  |  |
| 49 | COc1ccc(-c2[nH]ncc2CN(C)CC2CCCCO2)cc1F (centres undefined) | 9.19 |  |  |
| 55 | Cc1ccc(CNC(=O)C2CC(=O)N(C3CCCCCCC3)C2)cc1 (centres undefined) | -4.52 | 29.1 µM [falling, single point] | 5.17 µM [rising, single point] |
